Reference: PubChem BioAssay AID1347142 (National Center for Advancing Translational Sciences (NCATS), 2019)
This list was built around the results that the source calls inconclusive (neither active nor inactive); the mix of calls is not that of the screen. A potency beside an inconclusive call is a rough fit, not a confirmed value. Activity calls are given as the source filed them. The call rests on the fitted dose curve; in most records, active means well fitted inhibition curve with a large enough effect; inconclusive means small, poorly fitted or top-dose-only effect; inactive means no such curve, though single readings can be large or run the other way.

Chains of the proteins cited; added tags and fusions are not shown. Lines headed by an entry give the natural chain unless they say otherwise; changes in a name come on top.
UniProt Q9BV86: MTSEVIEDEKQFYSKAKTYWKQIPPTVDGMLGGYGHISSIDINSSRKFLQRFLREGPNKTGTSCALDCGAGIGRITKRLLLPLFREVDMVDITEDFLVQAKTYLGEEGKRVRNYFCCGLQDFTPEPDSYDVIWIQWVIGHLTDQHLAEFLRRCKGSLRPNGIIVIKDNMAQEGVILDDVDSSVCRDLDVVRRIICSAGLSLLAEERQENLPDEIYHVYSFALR

biological target: N-terminal Xaa-Pro-Lys N-methyltransferase 1 (Homo sapiens) (UniProt Q9BV86); test: qHTS Assay for Inhibitors of N-terminal methyltransferase 1 (NTMT1): ThioGlo3 Assay Confirmatory Screen, Round 1.; settings: NTMT1 SAHH-coupled ThioGlo3 fluorescence, 30 min; series mostly up to 56.8 µM
From the text: Assay Submitter (PI): Rong Huang Ph.D, Purdue University, West Lafayette, IN 47907 The N-terminal methytransferase 1 is the first methyltransferase that methylates protein alpha-N-amines and plays an important role in regulating cell mitosis, chromatin interactions and DNA repair. It is observed to be over-expressed in various cancer patient tissues like malignant melanoma and colorectal cancer tissues. Knockdown of NTMT1 in cancer cells causes cell mitotic defects and enhances sensitivity to DNA damaging chemotherapeutics. […] These critical cellular processes in which NTMT1 is implicated, coupled with emerging links to cellular dysfunction, strengthen the inference that NTMT1 is a compelling novel anticancer target. Progress have been made in understanding the molecular properties of NTMT1 and the biological consequences of protein alpha-N-terminal methylation, but there are no specific small molecule probes available for NTMT1 to fully characterize its MTase activity. To address this unmet need, a panel of assay is created and established to enable quantitative high-throughput screening (qHTS) for novel, potent, and selective small molecule NTMT1 inhibitors. Two orthogonal qHTS that use different reagents (ThioGlo vs. MTaseGlo) are developed for primary robotic screening against the NCATS chemical library of more than 400,000 small molecules. Identified inhibitors are reacquired, validated, and further characterized. […] Early Translation Branch (ETB) National Center for Advancing Translational Sciences (NCATS) National Institute of Health (NIH)
Materials: NTMT1 enzyme, substrate SPKRIA, control peptide RCC1-6 is provided by the Huang laboratory. ThioGlo3 Assay: In brief, 125nM NTMT1 enzyme was dispensed into a 1536-well assay plate with Aurora Discovery BioRAPTR Flying Reagent Dispenser (FRD, Beckton-Dickenson). Compounds (at various concentration) or 1uM RCC1-6 (SPKRIA) control were transferred to the assay plate using the Kalypsys 1536-pintool apparatus. After 1 min of room temperature incubation, 1uL of substrate (100uM SAM, 10uM SAHH, 15uM ThioGlo3) was added to the wells bringing the final assay volume to 4uL. Initial (background) fluorescence readout (EX: 340nm, EM: 450nm) was then detected using the PerkinElmer ViewLux microplate imager and a final fluorescence readout was taken after 30 min of room temperature incubation. The data was normalized to the background fluorescence.
Further: nearly all actives have a fitted effect of over 80% in size.
Potency means the concentration at half of the fitted maximal effect.

Potency, inactive:
COc1cc2nc(N3CC[C@H](N(C)C)C3)nc(NC3CC3)c2cc1OC
Nc1ncnc2c1ncn2[C@H]1C[C@H](O)[C@@H](CO)O1
CCN(c1cc(-c2ccc(CN3CCOCC3)cc2)cc(C(=O)NCc2c(C)cc(C)[nH]c2=O)c1C)C1CCOCC1
O=c1[nH]cnc2c1ncn2[C@@H]1O[C@H](CO)[C@@H](O)[C@H]1O
Nc1ncnc2c1ncn2C1C[C@H](O)[C@@H](CO)O1 (stereo not given in full)
CNC(=O)c1cnn(-c2nc(N)c3ncn([C@@H]4O[C@H](CO)[C@@H](O)[C@H]4O)c3n2)c1
CNc1ncnc2c1ncn2[C@@H]1O[C@H](CO)[C@@H](O)[C@@H]1O
Nc1ncnc2c1ncn2C1CC(O)C(CO)O1 (stereo not given)

Potency, active:
COc1cc2c(NC3CCN(C(C)C)CC3)nc(N3CCCN(c4ccccc4)CC3)nc2cc1OCCCN1CCCC1 17.1 µM
COc1cc2c(NC3CCN(C)CC3)nc(N3CCCN(C)CC3)nc2cc1O 24.1 µM
COc1cc2c(NC3CCN(C)CC3)nc(N3CCCN(C)CC3)nc2cc1OCCCN1CCCCC1 24.1 µM
COc1cc2c(NC3CCN(C)CC3)nc(N3CCCCC3)nc2cc1OCCOCCN(C)C 24.1 µM
COc1cc2c(NC3CCN(C)CC3)nc(N3CCCN(C)CC3)nc2cc1OCCCN1CCCC1 27.1 µM
CNCCCOc1cc2nc(N3CCCN(C)CC3)nc(NC3CCN(C)CC3)c2cc1OC 24.1 µM
COc1cc2nc(NCCN(C)C)nc(NC3CC3)c2cc1OC 27.1 µM

Some of these compounds in order of number of heavy atoms, falling:
Potency, active:
COc1cc2c(NC3CCN(C)CC3)nc(N3CCCN(C)CC3)nc2cc1OCCCN1CCCC1 27.1 µM
CNCCCOc1cc2nc(N3CCCN(C)CC3)nc(NC3CCN(C)CC3)c2cc1OC 24.1 µM
COc1cc2nc(NCCN(C)C)nc(NC3CC3)c2cc1OC 27.1 µM

Next part.

Potency, inconclusive:
CNc1nc(NC2CC2)c2cc(OC)c(OC)cc2n1 21.5 µM [inhibitor, partial curve]
Nc1nc(Cl)nc2c1ncn2[C@@H]1O[C@H](CO)[C@@H](O)[C@H]1O 24.1 µM [inhibitor, partial curve]
COc1cc2nc(N3CCCC3)nc(NC3CC3)c2cc1OC 24.1 µM [inhibitor, partial curve]
Cc1cc2nc3c(=O)[nH]c(=O)nc-3n(C[C@H](O)[C@H](O)[C@H](O)COP(=O)(O)OP(=O)(O)OC[C@H]3O[C@@H](n4cnc5c(N)ncnc54)[C@H](O)[C@H]3O)c2cc1C 9.37 µM [inhibitor, partial curve]
COc1cc2nc(N3CCCN(C)CC3)nc(NC3CC3)c2cc1OC 27.1 µM [inhibitor, partial curve]
Nc1[nH]c(=O)nc2c1ncn2C1OC(CO)C(O)C1O (stereo not given) 38.3 µM [inhibitor, partial curve, poor fit]
COc1cc2nc(Nc3ccccc3)nc(NC3CC3)c2cc1OC 24.1 µM [inhibitor, partial curve, poor fit]
Nc1ccc(CCNc2ncnc3c2ncn3C2OC(CO)C(O)C2O)cc1 (stereo not given) 24.1 µM [inhibitor, partial curve]
Nc1ncnc2c1ncn2[C@@H]1O[C@H](COP(=O)(O)OP(=O)(O)OC[C@H]2OC(O)[C@H](O)[C@@H]2O)[C@@H](O)[C@H]1O (stereo not given in full) 24.1 µM [inhibitor, partial curve]
COc1cc2c(NC3CCN(C(C)C)CC3)nc(C3CCCCC3)nc2cc1OCCCN1CCCC1 21.5 µM [inhibitor, partial curve]
Nc1ncnc2c1ncn2[C@@H]1O[C@H](C(=O)N2CCN(CC(=O)Nc3cccc4c3CNC4=O)CC2)[C@@H](O)[C@H]1O 48.2 µM [inhibitor, partial curve, poor fit]
C/C(=C\CNc1ncnc2c1ncn2[C@@H]1O[C@H](CO)[C@@H](O)[C@H]1O)CO 24.1 µM [inhibitor, partial curve]
Nc1ncnc2c1ncn2[C@H]1O[C@@H](CNS(=O)(=O)NC(=O)c2cccc(-c3noc(-c4ccccc4F)n3)c2)[C@H](O)[C@@H]1O 24.1 µM [inhibitor, partial curve]
OC[C@H]1O[C@H](n2cnc3c(N[C@H]4CCC[C@@H]4O)ncnc32)[C@H](O)[C@@H]1O 27.1 µM [inhibitor, partial curve]
CCCc1cc(C)[nH]c(=O)c1CNC(=O)c1cc(-c2ccc(N3CCN(C(C)C)CC3)nc2)cc2c1cnn2C(C)C 27.1 µM [inhibitor, partial curve, poor fit]
OCCNc1ncnc2c1ncn2[C@@H]1O[C@@H](CO)[C@H](O)[C@@H]1O 21.5 µM [inhibitor, partial curve]
Cc1cc(C)c(CNC(=O)c2cc(-c3ccc(CN4CCOCC4)cc3)cc3c2cnn3C2CCCC2)c(=O)[nH]1 48.2 µM [inhibitor, single point]
Nc1nc(Cl)nc2c1ncn2[C@@H]1O[C@H](CO)[C@@H](O)[C@@H]1F 30.4 µM [inhibitor, partial curve]
CCCC1CCN(c2nc(NC3CC3)c3cc(OC)c(OC)cc3n2)C1 (stereo not given) 19.2 µM [inhibitor, partial curve]
COc1cc2nc(N3CCN(C)CC3)nc(N3CCCCC3)c2cc1OC 24.1 µM [inhibitor, partial curve]
